Results reported in patent US20070167377A1, “Inhibitors of glycinamide ribonucleotide transformylase” (priority 2002, published 2007).
Some entries share one result that the patent states for a list of compounds. At least one structure is not confirmed: it was looked up by name or label, or the drawing left a doubt.

Amino acid sequences for entries named in this document (tags omitted). A change or cut given only in a name is not applied to a line headed by its entry.
UniProt P08179: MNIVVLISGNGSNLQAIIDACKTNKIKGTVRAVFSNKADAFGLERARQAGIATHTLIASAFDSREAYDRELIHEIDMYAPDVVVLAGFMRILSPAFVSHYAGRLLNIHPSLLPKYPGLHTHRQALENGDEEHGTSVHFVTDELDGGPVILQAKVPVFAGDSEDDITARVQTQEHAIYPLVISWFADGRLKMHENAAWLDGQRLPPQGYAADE

Key:
[1] = target: E. coli GAR Tfase (Escherichia coli, UniProt P08179); test: E. coli GAR Tfase inhibition; format: biochemical; conditions: γ-pentaglutamate vs monoglutamate
Method: GAR and AICAR Tfase inhibition studies were conducted as previously detailed^28 with the exception that the AICAR Tfase inhibition was conducted in the absence of 5 mM β-mercaptoethanol and screened with 10 nM enzyme, […] inhibitor and […] of cofactor. The DHFR inhibition study was conducted as previously detailed with 10 nM enzyme, […] H2F, […] NADPH and […] inhibitor.
The Ki values for the folate analogues were measured as previously described (Boger, D. L., et al., Bioorg. Med. Chem. 1997, 5, 1817-1830). Briefly, each compound was dissolved in dimethyl sulfoxide (DMSO) and then diluted in assay buffer. […] Thus, all assays were conducted by mixing 10 μM 10-formyl-5,8-dideazafolate (fDDF), 20 μM inhibitor in total volume of 1 mL buffer (0.1 M HEPES, pH 7.5) at 26° C., and the reaction initiated by the addition of 76 nM E. coli or human GAR Tfase. The assay monitors the deformylation of fDDF (Δε=18.9 mM^−1 cm^−1 at 295 nm) resulting from the transfer of the formyl group to β-GAR.

[2] = target: T1, recombinant human GAR Tfase (rhGAR Tfase) (Homo sapiens, UniProt P22102); test: Recombinant human GAR Tfase inhibition; format: biochemical; conditions: 21 vs 25, 22 vs 26
T1 construct: includes residues 808-1010 from the human trifunctional enzyme (purD-purM-purN); hexa-histidine (C); made in house; host or cells: E. coli BL21 (DE3) Gold, pet22b vector
T1 sequence (P22102 808-1010): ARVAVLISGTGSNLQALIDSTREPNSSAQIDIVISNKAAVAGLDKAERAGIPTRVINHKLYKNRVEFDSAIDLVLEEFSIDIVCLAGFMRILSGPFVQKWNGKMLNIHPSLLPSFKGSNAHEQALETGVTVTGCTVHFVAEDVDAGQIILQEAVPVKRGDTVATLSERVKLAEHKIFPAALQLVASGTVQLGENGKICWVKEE
Method: The gene was subcloned into the pet22b vector using the Ndel/Xhol cloning site with ahexa-histidine tag at the C-terminus. The plasmid was transformed into the E. coli expression strain BL21 (DE3) Gold. […] The purified protein was used in the inhibition assays, cytotoxic assays and crystallization experiments.
Briefly, each compound was dissolved in dimethyl sulfoxide (DMSO) and then diluted in assay buffer.

Row | SMILES | fold higher binding affinity than the monoglutamate inhibitors [1] | fold more potent than the corresponding α-pentaglutamates [2]
1 | Nc1nc(N)c(CCCC(C=O)c2ccc(C(=O)N[C@@H](CCC(=O)N[C@@H](CCC(=O)N[C@@H](CCC(=O)N[C@@H](CCC(=O)N[C@@H](CCC(=O)O)C(=O)O)C(=O)O)C(=O)O)C(=O)O)C(=O)O)cc2)c(=O)[nH]1 (stereo partly drawn) [Compound 21, N-{4-[5-(2,4-Diamino-6(1H)-pyrimidinon-5-yl)-1-formyl-but-2-yl]benzoyl}-L-γ-glutamyl-L-γ-glutamyl-L-γ-glutamyl-L-γ-glutamyl-L-γ-glutamic Acid] | 2-3 fold | 3-4 fold
2 | CN(C)N=CC(CCCc1c(N)nc(N)[nH]c1=O)c1ccc(C(=O)N[C@@H](CCC(=O)N[C@@H](CCC(=O)N[C@@H](CCC(=O)N[C@@H](CCC(=O)N[C@@H](CCC(=O)O)C(=O)O)C(=O)O)C(=O)O)C(=O)O)C(=O)O)cc1 (stereo partly drawn) [Compound 22, N{4-[5-(2,4-Diamino-6(1H)-pyrimidinon-5-yl)-1-(dimethylhydrazono)pent-2-yl]benzoyl}-L-γ-glutamyl-L-γ-glutamyl-L-γ-glutamyl-L-γ-glutamyl-L-γ-glutamic Acid] | 2-3 fold | –
